The test deals with NF90-FLAG-HA. Put plainly: affinity purification with mass spectrometry; tandem immunoprecipitation (Flag then HA, peptide elution) from 10 mg of cytoplasmic extract of HEK293T stably overexpressing NF90-FLAG-HA; mock HEK293T as control.

No constants are given. Whether binding was seen depends on the method and setting. In cells and extracts the contact can be indirect. These calls come from enrichment with a bait or labelling near it, and not all partners need be listed.

B1: DexH-box helicase 30 (DHX30) (protein, UniProt Q7L2E3 1-1194)
chain: MFSLDSFRKDRAQHRQRQCKLPPPRLPPMCVNPTPGGTISRASRDLLKEFPQPKNLLNSVIGRALGISHAKDKLVYVHTNGPKKKKVTLHIKWPKSVEVEGYGSKKIDAERQAAAAACQLFKGWGLLGPRNELFDAAKYRVLADRFGSPADSWWRPEPTMPPTSWRQLNPESIRPGGPGGLSRSLGREEEEDEEEELEEGTIDVTDFLSMTQQDSHAPLRDSRGSSFEMTDDDSAIRALTQFPLPKNLLAKVIQIATSSSTAKNLMQFHTVGTKTKLSTLTLLWPCPMTFVAKGRRKAEAENKAAALACKKLKSLGLVDRNNEPLTHAMYNLASLRELGETQRRPCTIQVPEPILRKIETFLNHYPVESSWIAPELRLQSDDILPLGKDSGPLSDPITGKPYVPLLEAEEVRLSQSLLELWRRRGPVWQEAPQLPVDPHRDTILNAIEQHPVVVISGDTGCGKTTRIPQLLLERYVTEGRGARCNVIITQPRRISAVSVAQRVSHELGPSLRRNVGFQVRLESKPPSRGGALLFCTVGILLRKLQSNPSLEGVSHVIVDEVHERDVNTDFLLILLKGLQRLNPALRLVLMSATGDNERFSRYFGGCPVIKVPGFMYPVKEHYLEDILAKLGKHQYLHRHRHHESEDECALDLDLVTDLVLHIDARGEPGGILCFLPGWQEIKGVQQRLQEALGMHESKYLILPVHSNIPMMDQKAIFQQPPVGVRKIVLATNIAETSITINDIVHVVDSGLHKEERYDLKTKVSCLETVWVSRANVIQRRGRAGRCQSGFAYHLFPRSRLEKMVPFQVPEILRTPLENLVLQAKIHMPEKTAVEFLSKAVDSPNIKAVDEAVILLQEIGVLDQREYLTTLGQRLAHISTDPRLAKAIVLAAIFRCLHPLLVVVSCLTRDPFSSSLQNRAEVDKVKALLSHDSGSDHLAFVRAVAGWEEVLRWQDRSSRENYLEENLLYAPSLRFIHGLIKQFSENIYEAFLVGKPSDCTLASAQCNEYSEEEELVKGVLMAGLYPNLIQVRQGKVTRQGKFKPNSVTYRTKSGNILLHKSTINREATRLRSRWLTYFMAVKSNGSVFVRDSSQVHPLAVLLLTDGDVHIRDDGRRATISLSDSDLLRLEGDSRTVRLLKELRRALGRMVERSLRSELAALPPSVQEEHGQLLALLAELLRGPCGSFDVRKTADD
In the case of B1, the binding result is given as “binds”.

B2: UP-frameshift-1 (UPF1) (protein, UniProt Q92900 1-1129)
chain: MSVEAYGPSSQTLTFLDTEEAELLGADTQGSEFEFTDFTLPSQTQTPPGGPGGPGGGGAGGPGGAGAGAAAGQLDAQVGPEGILQNGAVDDSVAKTSQLLAELNFEEDEEDTYYTKDLPIHACSYCGIHDPACVVYCNTSKKWFCNGRGNTSGSHIVNHLVRAKCKEVTLHKDGPLGETVLECYNCGCRNVFLLGFIPAKADSVVVLLCRQPCASQSSLKDINWDSSQWQPLIQDRCFLSWLVKIPSEQEQLRARQITAQQINKLEELWKENPSATLEDLEKPGVDEEPQHVLLRYEDAYQYQNIFGPLVKLEADYDKKLKESQTQDNITVRWDLGLNKKRIAYFTLPKTDSGNEDLVIIWLRDMRLMQGDEICLRYKGDLAPLWKGIGHVIKVPDNYGDEIAIELRSSVGAPVEVTHNFQVDFVWKSTSFDRMQSALKTFAVDETSVSGYIYHKLLGHEVEDVIIKCQLPKRFTAQGLPDLNHSQVYAVKTVLQRPLSLIQGPPGTGKTVTSATIVYHLARQGNGPVLVCAPSNIAVDQLTEKIHQTGLKVVRLCAKSREAIDSPVSFLALHNQIRNMDSMPELQKLQQLKDETGELSSADEKRYRALKRTAERELLMNADVICCTCVGAGDPRLAKMQFRSILIDESTQATEPECMVPVVLGAKQLILVGDHCQLGPVVMCKKAAKAGLSQSLFERLVVLGIRPIRLQVQYRMHPALSAFPSNIFYEGSLQNGVTAADRVKKGFDFQWPQPDKPMFFYVTQGQEEIASSGTSYLNRTEAANVEKITTKLLKAGAKPDQIGIITPYEGQRSYLVQYMQFSGSLHTKLYQEVEIASVDAFQGREKDFIILSCVRANEHQGIGFLNDPRRLNVALTRARYGVIIVGNPKALSKQPLWNHLLNYYKEQKVLVEGPLNNLRESLMQFSKPRKLVNTINPGARFMTTAMYDAREAIIPGSVYDRSSQGRPSSMYFQTHDQIGMISAGPSHVAAMNIPIPFNLVMPPMPPPGYFGQANGPAAGRGTPKGKTGRGGRQKNRFGLPGPSQTNLPNSQASQDVASQPFSQGALTQGYISMSQPSQMSQPGLSQPELSQDSYLGDEFKSQIDVALSQDSTYQGERAYQHGGVTGLSQY
As to B2, the binding result is given as “binds”.

The record behind these values is publication PMC9438302.
